Test: general procedure: Fmoc solid-phase peptide synthesis; Rink amide resin (loading 0.7 mmol/g); TentaGel S RAM; HOBt/DIC; HATU/DIPEA for Fmoc-NH-(PEG)2-COOH
Details: for final HPLC purity: RP-HPLC (two different HPLC systems)
[1] = whole synthesis, scale of the general procedure 15 μmol

| Substance | final HPLC purity (conjugation step) | final HPLC purity [1] | also measured |
| --- | --- | --- | --- |
| C-Peg-Y*-K(c[RGDfK])-Y*-Peg-G*(K(N3)-FHRRIKA-NH2)-βA-NH2 | – | – | conjugation yield (conjugation step): 75% |
| C-Peg-Y*-K(c[RGDfK])-Y*-Peg-G*-βA-NH2 | >90% | – | – |
| C-Peg-Y*-K-Y*-Peg-G*(K(N3)-FHRRIKA-NH2)-βA-NH2 | >95% | – | – |
| C-Peg-Y*-K-Y*-Peg-G*-βA-NH2 | – | >95% | – |
| K(N3)-FHRRIKA-NH2 | – | >95% | – |
